Results are given in words; binding and its absence hold for the method and conditions named.
What was measured:
[1] = molecular target: PedB, pediocin-like immunity protein conferring immunity to pediocin PP-1 (Pediococcus pentosaceus CBT-8) (Pediococcus pentosaceus CBT-8) (UniProt P36496); test: SEC; gel filtration of purified recombinant PedB on Superdex 75 16/60, 20 mM Tris-HCl pH 8.0, 150 mM NaCl, against low molecular mass standards (Kav); both purified
[2] = molecular target: PedB, pediocin-like immunity protein conferring immunity to pediocin PP-1 (Pediococcus pentosaceus CBT-8) (Pediococcus pentosaceus CBT-8) (UniProt P36496); test: crystal structure; native PedB crystals, space group P6(2), one molecule in the asymmetric unit, 1.6 Å; crystal packing inspected; both purified

binding [1]: no binding | binding [2]: no binding
B1: PedB, pediocin-like immunity protein conferring immunity to pediocin PP-1 (Pediococcus pentosaceus CBT-8) (protein, UniProt P36496 1-112)
chain: MNKTKSEHIKQQALDLFTRLQFLLQKHDTIEPYQYVLDILETGISKTKHNQQTPERQARVVYNKIASQALVDKLHFTAEENKVLAAINELAHSQKGWGEFNMLETTNTWPSQ
